From paper PMC7605441
No constants are given. Whether binding was seen depends on the method and setting. In cells and extracts the contact can be indirect. Some entries that bind do so weakly or less than the wild type. Tags and fused reporters may be left off the sequences shown.

Amino acid sequences for entries named in this document (tags omitted).
UniProt Q08297: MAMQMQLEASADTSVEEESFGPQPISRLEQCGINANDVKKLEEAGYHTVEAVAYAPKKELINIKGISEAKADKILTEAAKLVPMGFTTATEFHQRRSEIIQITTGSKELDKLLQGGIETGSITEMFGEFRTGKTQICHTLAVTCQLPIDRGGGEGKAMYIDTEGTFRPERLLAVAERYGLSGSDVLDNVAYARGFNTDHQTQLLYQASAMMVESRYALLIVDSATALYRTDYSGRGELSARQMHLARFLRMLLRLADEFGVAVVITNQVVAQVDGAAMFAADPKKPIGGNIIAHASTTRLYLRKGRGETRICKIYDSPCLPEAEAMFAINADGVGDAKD

Biological target: murine RAD51 with a C-terminal EGFP tag (mouse) (UniProt Q08297)
Experiment: co-IP; GFP-tagged RAD51 co-expressed with mCherry-fused RAD51AP1 (WT or mutant) in 293T/293FT cells; reciprocal immunoprecipitation (lanes 1-10 and lanes 11-20 of Fig. 7e) on protein A-agarose beads with antibody, EBN buffer (0.5% NP40, 150 mM NaCl), 5 h, 4 °C, immunoblot; asynchronous cells, or cells arrested in mitosis with nocodazole (WT only)

| Binder | binding |
| --- | --- |
| murine RAD51AP1 S309A fused to mCherry (protein, UniProt Q8C551 1-337) MVRPTRNRKPINYSQFEDSGNDSDDDFISSSTPVNKSKTVPKVLKQDKPKPNLKNLQKEEVLPTEPPKKRVALDDKVFQRGLEVALALSVKELPTLTNQVKKSKEKSTDKQGKEKTENTGKPPRVSNCSVASDDVEDLDKITEEGDASSVEGERKSPSQAKAPRRRAPSEGSDGSSANDTESESATGEGSESDPDFDESKESDEDFGVRRSKESKKKTVQKKPAGEKKERKSKPKCEASVTSVDPAPAAIKSGSPSLPQAVGLPSEATRKPAIMCSPSAESKRPKWVPPAASGSRNSSSNALAGTPAKAPSQSLRLGLSRLAPVKRLHPSATSSQVR | binds |
| murine RAD51AP1 S309D fused to mCherry (protein, UniProt Q8C551 1-337) MVRPTRNRKPINYSQFEDSGNDSDDDFISSSTPVNKSKTVPKVLKQDKPKPNLKNLQKEEVLPTEPPKKRVALDDKVFQRGLEVALALSVKELPTLTNQVKKSKEKSTDKQGKEKTENTGKPPRVSNCSVASDDVEDLDKITEEGDASSVEGERKSPSQAKAPRRRAPSEGSDGSSANDTESESATGEGSESDPDFDESKESDEDFGVRRSKESKKKTVQKKPAGEKKERKSKPKCEASVTSVDPAPAAIKSGSPSLPQAVGLPSEATRKPAIMCSPSAESKRPKWVPPAASGSRNSSSNALAGTPAKDPSQSLRLGLSRLAPVKRLHPSATSSQVR | binds |

Now from value to binder:

| binding | Binder |
| --- | --- |
| binds weakly | murine RAD51AP1 T305D/S309D fused to mCherry (protein, UniProt Q8C551 1-337) MVRPTRNRKPINYSQFEDSGNDSDDDFISSSTPVNKSKTVPKVLKQDKPKPNLKNLQKEEVLPTEPPKKRVALDDKVFQRGLEVALALSVKELPTLTNQVKKSKEKSTDKQGKEKTENTGKPPRVSNCSVASDDVEDLDKITEEGDASSVEGERKSPSQAKAPRRRAPSEGSDGSSANDTESESATGEGSESDPDFDESKESDEDFGVRRSKESKKKTVQKKPAGEKKERKSKPKCEASVTSVDPAPAAIKSGSPSLPQAVGLPSEATRKPAIMCSPSAESKRPKWVPPAASGSRNSSSNALAGDPAKDPSQSLRLGLSRLAPVKRLHPSATSSQVR |
| binds | wild-type murine RAD51AP1 fused to mCherry (protein, UniProt Q8C551 1-337) MVRPTRNRKPINYSQFEDSGNDSDDDFISSSTPVNKSKTVPKVLKQDKPKPNLKNLQKEEVLPTEPPKKRVALDDKVFQRGLEVALALSVKELPTLTNQVKKSKEKSTDKQGKEKTENTGKPPRVSNCSVASDDVEDLDKITEEGDASSVEGERKSPSQAKAPRRRAPSEGSDGSSANDTESESATGEGSESDPDFDESKESDEDFGVRRSKESKKKTVQKKPAGEKKERKSKPKCEASVTSVDPAPAAIKSGSPSLPQAVGLPSEATRKPAIMCSPSAESKRPKWVPPAASGSRNSSSNALAGTPAKSPSQSLRLGLSRLAPVKRLHPSATSSQVR |
| binds | murine RAD51AP1 T305D fused to mCherry (protein, UniProt Q8C551 1-337) MVRPTRNRKPINYSQFEDSGNDSDDDFISSSTPVNKSKTVPKVLKQDKPKPNLKNLQKEEVLPTEPPKKRVALDDKVFQRGLEVALALSVKELPTLTNQVKKSKEKSTDKQGKEKTENTGKPPRVSNCSVASDDVEDLDKITEEGDASSVEGERKSPSQAKAPRRRAPSEGSDGSSANDTESESATGEGSESDPDFDESKESDEDFGVRRSKESKKKTVQKKPAGEKKERKSKPKCEASVTSVDPAPAAIKSGSPSLPQAVGLPSEATRKPAIMCSPSAESKRPKWVPPAASGSRNSSSNALAGDPAKSPSQSLRLGLSRLAPVKRLHPSATSSQVR |
